Laboratory results from US10709724B2, “Methods of treating mitochondrial dysfunction” (Ecole Polytechnique Federale de Lausanne (EPFL), priority 2011, dated 2020).
Some results were stated once for a whole list of compounds, not compound by compound.

Tested on: C. elegans
Assay: Worm lifespan analysis
Type: in vivo
Settings: worms fed from eggs until death
Procedure: Worm Lifespan Analysis Lifespan tests were performed as described in Mouchiroud et al (L. Mouchiroud et al., Pyruvate imbalance mediates metabolic reprogramming and mimics lifespan extension by dietary restriction in Caenorhabditis elegans. Aging Cell 10, 39 (2011)). Briefly, 60-100 animals were used per conditions and scored every other day. All lifespan experiments were performed at 20° C. […] Animals were exposed to compounds during the full life from eggs until death. To ensure a permanent exposure to the compound, plates were changed twice a week. All the compounds used in this study were dissolved in a water stock solution.

SMILES	lifespan extension
C[C@]1(c2nc3c(C(N)=O)cccc3[nH]2)CCCN1 [ABT-888]	15-23%
O=C(c1cc(Cc2n[nH]c(=O)c3ccccc23)ccc1F)N1CCN(C(=O)C2CC2)CC1 [AZD2281]	15-23%
